Some of these results come from one statement about several compounds together. At least one compound was matched to its structure with a doubt left.
Tests used:
[1] = test system: Myzus persicae; experiment: Green peach aphid (Myzus persicae) mortality test on dipped pepper plants; type: in vivo; conditions: 300 ppm; pepper plant leaves dipped; aphid mortality determined after 5 days
Method: (§1) The active compounds were formulated • a. for testing the activity against Aphis gossypii, Myzus persicae, and Aphis fabae, as 50:50 acetone:water solutions amended with 100 ppm Kinetic® (surfactant), • b. for testing the activity against Spodoptera eridania as a 10.000 ppm solution in a mixture of 35% acetone and water, which was diluted with water, if needed.
(§2) After the experiments were completed, in each case the lowest concentration was determined at which the compound still caused an 75 to 100% inhibition or mortality in comparison with untreated controls (limit or minimal concentration).
B.2 Green Peach Aphid (Myzus persicae)
(§3) Pepper plants in the 2nd leaf-pair stage (variety ‘California Wonder’) are infested with approximately 40 laboratory-reared aphids by placing infested leaf sections on top of the test plants. The leaf sections are removed after 24 hr. The leaves of the intact plants are dipped into gradient solutions of the test compound. Aphid mortality on the treated plants, relative to mortality on check plants, is determined after 5 days.

[2] = test system: Aphis gossypii; experiment: Cotton aphid (Aphis gossypii) mortality test on dipped cotton plants; type: in vivo; conditions: 300 ppm; cotton cotyledons dipped; aphid mortality determined after 5 days
Method: as §1, §2
B.1 Cotton Aphid (Aphis gossypii)
as §3, with “Cotton” for “Pepper”, “cotyledon” for “2nd leaf-pair”, “‘Delta Pine’)” for “‘California Wonder’)”, “100” for “40”, “cotyledons” for “leaves”

Row | Structure (SMILES) | mortality in comparison with untreated controls [1] | mortality in comparison with untreated controls [2]
1 | O=C(OCCNC(=S)N[C@H]1CCc2ccccc21)c1ccc(Cl)s1 [Example 22] | over 80% | over 80%
2 | O=C(OCCNC(=S)N[C@H]1CCc2ccccc21)c1ccc2ccccc2c1 [Example 35] | over 80% | over 80%
3 | Cc1onc(-c2ccccc2Cl)c1C(=O)OCCNC(=S)N[C@H]1CCc2ccccc21 [Example 31] | over 80% | over 80%
4 | O=C(COc1ccccc1)OCCNC(=S)N[C@H]1CCc2ccccc21 [Example 41] | over 80% | over 80%
5 | O=C(OCCNC(=S)N[C@H]1CCc2ccccc21)c1cccc(C(F)(F)F)c1 [Example 24] | over 80% | over 80%
6 | O=C(OCCNC(=S)N[C@H]1CCc2ccccc21)C1CCCC1 [Example 33] | over 80% | over 80%
7 | O=C(CCc1ccccc1)OCCNC(=S)N[C@H]1CCc2ccccc21 [Example 37] | over 80% | over 80%
8 | CSCCC(=O)OCCNC(=S)N[C@H]1CCc2ccccc21 [Example 40] | over 80% | over 80%
9 | CC(C)(C)C(=O)OCCNC(=S)N[C@H]1CCc2ccccc21 [Example 36] | over 80% | over 80%
10 | CSc1ncccc1C(=O)OCCNC(=S)N[C@H]1CCc2ccccc21 [Example 26] | over 80% | over 80%
11 | O=C(Cc1ccccc1)OCCNC(=S)N[C@H]1CCc2ccccc21 [Example 28] | over 80% | over 80%
12 | N#Cc1cccc(C(=O)OCCNC(=S)N[C@H]2CCc3ccccc32)c1 [Example 27] | over 80% | over 80%
13 | O=C(Cc1cccs1)OCCNC(=S)N[C@H]1CCc2ccccc21 [Example 38] | over 80% | over 80%
14 | CCC(=O)OCCNC(=S)N[C@H]1CCc2ccccc21 [Example 39] | over 80% | over 80%
15 | CCSc1ncccc1C(=O)OCCNC(=S)N[C@H]1CCc2ccccc21 [Example 25] | over 80% | over 80%
16 | O=C(OCCNC(=S)N[C@H]1CCc2ccccc21)c1ccco1 [Example 23] | over 80% | over 80%
17 | CCC(C(=O)OCCNC(=S)N[C@H]1CCc2ccccc21)c1ccccc1 (stereo partly shown) [Example 32] | over 80% | over 80%
18 | O=C(OCCNC(=S)N[C@H]1CCc2ccccc21)C(c1ccccc1)c1ccccc1 [Example 30] | over 80% | over 80%
19 | CC(=O)Oc1ccccc1C(=O)OCCNC(=S)N[C@H]1CCc2ccccc21 [Example 29] | over 80% | over 80%
20 | CC(C)CC(=O)OCCNC(=S)N[C@H]1CCc2ccccc21 [Example 34] | over 80% | over 80%

Source: US7674827B2, “Indanyl- and tetrahydronaphtyl-amino-thiourea compounds for combating animal pests” (BASF SE, priority 2005, dated 2010)
